The supplement of paper PMC12823440, “Inhibitors supercharge kinase turnover through native proteolytic circuits” (Nature, 2025)
Counter-ions that a name gives are not always drawn. The list shows a part of the results. The calls rarely recur for the same compound in another form.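 Kinases were expressed as nanoluciferase fusions in K562 cells and luminescence was read every 4 h between 2 and 18 h as percent of control, DMSO set to 100% and a positive control to 0%. A time point counts as decreased when the signal drops significantly (2 sigma). The hit call is the authors' own, does not follow from the count of time points alone, and its rule is not shown.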

By UniProt entry, the sequences of proteins in these tests, tags left out. Where a name states a change or a piece, a line headed by the entry shows the natural chain unless it says otherwise.
UniProt P07949, whole entry, looked up: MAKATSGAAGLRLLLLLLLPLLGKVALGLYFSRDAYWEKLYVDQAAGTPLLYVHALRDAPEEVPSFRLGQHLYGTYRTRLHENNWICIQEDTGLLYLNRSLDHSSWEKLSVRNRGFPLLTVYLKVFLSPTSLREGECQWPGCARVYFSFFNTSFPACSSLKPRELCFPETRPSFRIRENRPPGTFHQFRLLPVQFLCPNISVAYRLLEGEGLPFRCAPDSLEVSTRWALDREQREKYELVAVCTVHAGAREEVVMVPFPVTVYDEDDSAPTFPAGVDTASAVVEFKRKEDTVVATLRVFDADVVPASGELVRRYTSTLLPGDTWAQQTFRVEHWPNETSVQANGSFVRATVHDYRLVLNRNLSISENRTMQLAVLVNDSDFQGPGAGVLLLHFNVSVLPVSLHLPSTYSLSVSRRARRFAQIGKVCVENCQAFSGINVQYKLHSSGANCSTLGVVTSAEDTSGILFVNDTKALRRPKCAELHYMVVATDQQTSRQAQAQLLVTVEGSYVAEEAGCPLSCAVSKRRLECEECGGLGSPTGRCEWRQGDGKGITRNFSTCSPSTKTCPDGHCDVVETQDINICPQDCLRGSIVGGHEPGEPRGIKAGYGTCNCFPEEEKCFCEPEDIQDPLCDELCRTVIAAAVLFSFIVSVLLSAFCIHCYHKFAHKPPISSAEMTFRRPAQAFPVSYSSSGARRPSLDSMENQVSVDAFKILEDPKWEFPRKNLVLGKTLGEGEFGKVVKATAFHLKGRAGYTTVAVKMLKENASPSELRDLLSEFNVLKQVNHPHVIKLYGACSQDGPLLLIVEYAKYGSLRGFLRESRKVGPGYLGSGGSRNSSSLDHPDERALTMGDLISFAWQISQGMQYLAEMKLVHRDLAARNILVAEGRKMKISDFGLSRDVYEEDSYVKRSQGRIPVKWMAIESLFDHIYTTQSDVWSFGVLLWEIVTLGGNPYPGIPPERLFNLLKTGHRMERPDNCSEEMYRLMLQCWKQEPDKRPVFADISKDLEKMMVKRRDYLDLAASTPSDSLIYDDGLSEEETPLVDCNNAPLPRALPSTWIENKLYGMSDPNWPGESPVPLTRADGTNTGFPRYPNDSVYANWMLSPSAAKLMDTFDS
UniProt P07949, whole entry M918T, looked up: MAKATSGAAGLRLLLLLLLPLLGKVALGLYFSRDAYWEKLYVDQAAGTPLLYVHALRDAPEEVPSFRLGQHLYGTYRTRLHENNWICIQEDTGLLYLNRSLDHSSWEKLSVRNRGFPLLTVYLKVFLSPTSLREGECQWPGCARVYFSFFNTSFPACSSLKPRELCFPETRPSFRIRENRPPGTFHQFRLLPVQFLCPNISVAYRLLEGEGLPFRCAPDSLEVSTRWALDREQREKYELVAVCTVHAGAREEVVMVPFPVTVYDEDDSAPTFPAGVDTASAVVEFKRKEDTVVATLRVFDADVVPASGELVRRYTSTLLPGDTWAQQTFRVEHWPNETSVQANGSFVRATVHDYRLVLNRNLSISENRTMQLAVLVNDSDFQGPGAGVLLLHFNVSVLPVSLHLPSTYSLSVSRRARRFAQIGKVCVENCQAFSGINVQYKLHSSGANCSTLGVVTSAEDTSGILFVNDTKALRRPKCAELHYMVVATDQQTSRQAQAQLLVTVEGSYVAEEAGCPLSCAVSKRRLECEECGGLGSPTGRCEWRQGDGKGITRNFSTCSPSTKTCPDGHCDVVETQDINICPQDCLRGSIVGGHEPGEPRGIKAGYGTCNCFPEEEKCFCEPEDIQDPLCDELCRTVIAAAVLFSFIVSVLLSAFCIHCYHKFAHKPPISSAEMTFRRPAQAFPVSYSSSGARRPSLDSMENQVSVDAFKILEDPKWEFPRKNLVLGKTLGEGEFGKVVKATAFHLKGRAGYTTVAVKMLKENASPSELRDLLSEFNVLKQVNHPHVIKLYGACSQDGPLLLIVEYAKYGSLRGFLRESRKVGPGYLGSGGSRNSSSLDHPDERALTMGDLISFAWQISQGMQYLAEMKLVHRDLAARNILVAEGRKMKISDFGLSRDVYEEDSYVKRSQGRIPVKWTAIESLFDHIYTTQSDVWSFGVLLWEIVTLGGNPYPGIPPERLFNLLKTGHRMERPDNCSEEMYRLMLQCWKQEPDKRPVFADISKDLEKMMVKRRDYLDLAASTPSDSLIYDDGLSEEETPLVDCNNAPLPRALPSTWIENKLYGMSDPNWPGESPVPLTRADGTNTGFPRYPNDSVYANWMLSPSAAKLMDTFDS
UniProt Q9BRS2: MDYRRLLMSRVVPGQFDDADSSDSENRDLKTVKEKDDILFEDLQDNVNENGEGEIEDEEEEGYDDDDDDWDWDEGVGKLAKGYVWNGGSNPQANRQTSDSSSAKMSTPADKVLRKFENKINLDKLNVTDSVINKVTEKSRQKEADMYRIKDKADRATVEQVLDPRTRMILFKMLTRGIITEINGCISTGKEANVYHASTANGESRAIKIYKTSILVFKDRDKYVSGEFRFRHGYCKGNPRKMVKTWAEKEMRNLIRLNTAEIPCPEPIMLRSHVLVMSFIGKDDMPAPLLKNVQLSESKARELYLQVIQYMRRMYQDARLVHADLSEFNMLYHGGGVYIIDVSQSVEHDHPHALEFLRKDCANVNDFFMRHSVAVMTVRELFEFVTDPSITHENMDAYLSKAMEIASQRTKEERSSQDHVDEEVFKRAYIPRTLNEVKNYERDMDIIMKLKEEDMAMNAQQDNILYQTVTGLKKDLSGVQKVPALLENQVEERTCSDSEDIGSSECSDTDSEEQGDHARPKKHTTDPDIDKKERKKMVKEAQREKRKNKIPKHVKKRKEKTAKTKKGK
UniProt Q13546: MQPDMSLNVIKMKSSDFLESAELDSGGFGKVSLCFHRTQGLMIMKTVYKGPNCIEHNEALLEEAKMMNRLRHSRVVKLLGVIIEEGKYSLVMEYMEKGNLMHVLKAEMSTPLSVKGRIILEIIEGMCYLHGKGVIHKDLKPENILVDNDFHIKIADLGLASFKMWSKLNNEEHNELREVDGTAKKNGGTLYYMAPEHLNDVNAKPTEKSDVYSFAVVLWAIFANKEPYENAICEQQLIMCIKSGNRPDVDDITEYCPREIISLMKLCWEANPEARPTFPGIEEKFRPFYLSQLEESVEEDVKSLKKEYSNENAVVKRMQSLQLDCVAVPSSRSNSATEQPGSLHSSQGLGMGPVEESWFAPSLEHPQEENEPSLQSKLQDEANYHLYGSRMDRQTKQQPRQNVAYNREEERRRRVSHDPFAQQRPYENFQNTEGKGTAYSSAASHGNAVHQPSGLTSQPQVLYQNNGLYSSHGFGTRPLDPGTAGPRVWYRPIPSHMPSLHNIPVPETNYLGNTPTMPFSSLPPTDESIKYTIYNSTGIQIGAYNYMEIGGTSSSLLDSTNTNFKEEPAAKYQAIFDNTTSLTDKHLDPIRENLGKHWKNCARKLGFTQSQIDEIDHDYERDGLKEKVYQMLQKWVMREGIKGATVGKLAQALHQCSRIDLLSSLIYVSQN
UniProt Q01974, whole entry: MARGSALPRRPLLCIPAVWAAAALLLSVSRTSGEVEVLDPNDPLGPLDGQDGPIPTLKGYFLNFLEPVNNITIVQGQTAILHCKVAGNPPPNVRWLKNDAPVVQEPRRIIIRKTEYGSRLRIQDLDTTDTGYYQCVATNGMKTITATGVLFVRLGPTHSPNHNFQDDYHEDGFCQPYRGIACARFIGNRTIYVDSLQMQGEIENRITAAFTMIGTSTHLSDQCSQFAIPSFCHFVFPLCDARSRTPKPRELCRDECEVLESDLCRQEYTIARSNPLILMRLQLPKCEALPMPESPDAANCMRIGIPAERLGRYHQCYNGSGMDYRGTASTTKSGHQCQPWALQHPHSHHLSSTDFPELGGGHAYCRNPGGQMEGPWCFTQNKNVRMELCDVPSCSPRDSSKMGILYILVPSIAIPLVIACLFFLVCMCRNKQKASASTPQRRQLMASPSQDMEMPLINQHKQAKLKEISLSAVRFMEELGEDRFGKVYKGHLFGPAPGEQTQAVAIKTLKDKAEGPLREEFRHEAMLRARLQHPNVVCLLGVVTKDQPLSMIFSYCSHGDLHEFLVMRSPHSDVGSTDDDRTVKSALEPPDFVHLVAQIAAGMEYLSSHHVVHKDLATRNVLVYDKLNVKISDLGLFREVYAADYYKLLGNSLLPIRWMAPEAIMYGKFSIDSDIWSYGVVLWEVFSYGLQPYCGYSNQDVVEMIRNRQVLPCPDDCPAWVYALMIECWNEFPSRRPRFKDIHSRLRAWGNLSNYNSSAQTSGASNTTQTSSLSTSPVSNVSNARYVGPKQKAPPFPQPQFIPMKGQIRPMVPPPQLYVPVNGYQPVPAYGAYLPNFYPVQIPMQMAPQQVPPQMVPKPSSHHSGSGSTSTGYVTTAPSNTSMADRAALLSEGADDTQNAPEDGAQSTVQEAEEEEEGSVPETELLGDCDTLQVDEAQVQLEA
UniProt Q15418, whole entry: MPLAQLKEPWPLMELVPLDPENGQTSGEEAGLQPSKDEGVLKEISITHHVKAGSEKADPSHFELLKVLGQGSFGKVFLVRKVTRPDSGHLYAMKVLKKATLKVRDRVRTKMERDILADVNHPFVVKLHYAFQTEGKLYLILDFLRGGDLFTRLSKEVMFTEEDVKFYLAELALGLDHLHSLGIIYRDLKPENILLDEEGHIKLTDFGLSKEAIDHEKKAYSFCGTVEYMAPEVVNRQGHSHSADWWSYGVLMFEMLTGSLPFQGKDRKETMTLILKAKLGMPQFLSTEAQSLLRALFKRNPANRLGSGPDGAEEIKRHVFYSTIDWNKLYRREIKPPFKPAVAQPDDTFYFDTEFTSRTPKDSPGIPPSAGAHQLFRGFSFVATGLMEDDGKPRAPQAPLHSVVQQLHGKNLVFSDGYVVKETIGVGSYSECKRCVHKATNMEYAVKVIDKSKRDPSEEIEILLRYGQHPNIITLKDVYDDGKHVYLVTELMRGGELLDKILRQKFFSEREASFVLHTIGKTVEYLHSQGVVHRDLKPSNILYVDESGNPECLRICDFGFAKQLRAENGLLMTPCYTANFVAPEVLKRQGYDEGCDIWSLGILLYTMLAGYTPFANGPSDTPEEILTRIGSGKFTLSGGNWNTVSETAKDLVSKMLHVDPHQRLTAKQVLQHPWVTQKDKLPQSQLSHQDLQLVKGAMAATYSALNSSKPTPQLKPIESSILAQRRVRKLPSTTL
UniProt Q9NYA1, whole entry: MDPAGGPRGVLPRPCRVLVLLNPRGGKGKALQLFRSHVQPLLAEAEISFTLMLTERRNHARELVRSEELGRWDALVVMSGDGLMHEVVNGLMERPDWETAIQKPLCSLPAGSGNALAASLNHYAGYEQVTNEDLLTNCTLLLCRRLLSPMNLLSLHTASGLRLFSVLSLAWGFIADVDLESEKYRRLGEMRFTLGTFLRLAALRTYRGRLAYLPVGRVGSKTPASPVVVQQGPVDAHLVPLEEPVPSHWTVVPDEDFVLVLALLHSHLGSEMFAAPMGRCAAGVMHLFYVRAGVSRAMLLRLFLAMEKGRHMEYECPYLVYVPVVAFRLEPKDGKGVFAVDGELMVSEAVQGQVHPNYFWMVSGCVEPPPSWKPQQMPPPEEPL
UniProt Q9Y6E0: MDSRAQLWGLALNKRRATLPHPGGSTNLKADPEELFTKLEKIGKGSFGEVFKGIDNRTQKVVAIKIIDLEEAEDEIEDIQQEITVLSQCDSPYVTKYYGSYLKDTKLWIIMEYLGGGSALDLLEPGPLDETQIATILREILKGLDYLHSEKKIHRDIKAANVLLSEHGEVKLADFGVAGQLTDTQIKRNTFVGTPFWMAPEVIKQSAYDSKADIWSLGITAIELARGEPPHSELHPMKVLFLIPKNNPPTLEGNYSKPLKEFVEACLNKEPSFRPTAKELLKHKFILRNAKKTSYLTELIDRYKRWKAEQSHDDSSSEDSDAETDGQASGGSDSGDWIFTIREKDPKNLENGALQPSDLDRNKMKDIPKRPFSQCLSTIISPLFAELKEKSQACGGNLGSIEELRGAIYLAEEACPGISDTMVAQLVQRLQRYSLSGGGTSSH

Columns and labels:
Assay in all cases: kinase-Nluc reporter destabilization hit call (1 = scored as downregulated) (binary); higher = compound decreases kinase abundance
Details in all cases: K562; 2-18 h
RET = RET (UniProt P07949)
[1] = target: RET_M918T (clone: RET_mut) (UniProt P07949)
RIOK1 = RIOK1 (UniProt Q9BRS2)
RIPK1 = RIPK1 (UniProt Q13546)
RIPK2 = RIPK2 (UniProt O43353)
ROR2 = ROR2 (UniProt Q01974)
RPS6KA1 = RPS6KA1 (UniProt Q15418)
SPHK1 = SPHK1 (UniProt Q9NYA1)
SRC = SRC (UniProt P12931)
STK24 = STK24 (UniProt Q9Y6E0)

Measured: kinase-Nluc reporter destabilization hit call

CCc1cccc(CC)c1NC(=O)c1nn(C)c2c1CCc1cnc(Nc3ccc(C(=O)NC4CCN(C)CC4)cc3OC(F)(F)F)nc1-2 (2 µM)
inactive: RET 0 | [1] 0 | RIOK1 = 0 | RIPK1 = 0 | RIPK2 = 0 | ROR2 = 0 | RPS6KA1 = 0 | SPHK1 = 0 | SRC 0 | STK24 = 0

CC(C)c1ccc(CC(=O)N2CCN(c3ccc(C#N)nn3)CC2)cc1 (10 µM)
inactive: RET 0 | [1] 0 | RIOK1 = 0 | RIPK1 = 0 | RIPK2 = 0 | ROR2 = 0 | RPS6KA1 = 0 | SPHK1 = 0 | SRC 0 | STK24 = 0

C=CC(=O)Nc1cccc(Oc2nc(Nc3ccc(N4CCN(C)CC4)cc3)nc3ccoc23)c1 [Poseltinib] (10 µM)
inactive: RET 0 | [1] 0 | RIOK1 = 0 | RIPK1 = 0 | RIPK2 = 0 | ROR2 = 0 | RPS6KA1 = 0 | SPHK1 = 0 | SRC 0 | STK24 = 0

O[C@H]1CC[C@H](Nc2ncc3nc(Nc4c(F)cc(F)cc4F)n([C@H]4CCOC4)c3n2)CC1 [Tanzisertib] (10 µM)
inactive: RET 0 | [1] 0 | RIOK1 = 0 | RIPK1 = 0 | RIPK2 = 0 | ROR2 = 0 | RPS6KA1 = 0 | SPHK1 = 0 | SRC 0 | STK24 = 0

CCc1c(C)sc(NC(=S)NC(=O)c2ccc(Cl)cc2)c1C(N)=O (10 µM)
inactive: RET 0 | [1] 0 | RIOK1 = 0 | RIPK1 = 0 | RIPK2 = 0 | ROR2 = 0 | RPS6KA1 = 0 | SPHK1 = 0 | SRC 0 | STK24 = 0

Copied from above (2 entries):
CC(C)c1ccc(CC(=O)N2CCN(c3ccc(C#N)nn3)CC2)cc1 (10 µM)
inactive: RET 0 | [1] 0 | RIOK1 = 0 | RIPK1 = 0 | RIPK2 = 0 | ROR2 = 0 | RPS6KA1 = 0 | SPHK1 = 0 | SRC 0 | STK24 = 0

C=CC(=O)Nc1cccc(Oc2nc(Nc3ccc(N4CCN(C)CC4)cc3)nc3ccoc23)c1 [Poseltinib] (10 µM)
inactive: RET 0 | [1] 0 | RIOK1 = 0 | RIPK1 = 0 | RIPK2 = 0 | ROR2 = 0 | RPS6KA1 = 0 | SPHK1 = 0 | SRC 0 | STK24 = 0

Next entries follow:

CCOc1nc(Nc2ccc(C(=O)N3CCOCC3)cc2OC)nc2[nH]ccc12 [LRRK2 inhibitor 1] (2.5 µM)
inactive: RET 0 | [1] 0 | RIOK1 = 0 | RIPK1 = 0 | RIPK2 = 0 | ROR2 = 0 | RPS6KA1 = 0 | SPHK1 = 0 | SRC 0 | STK24 = 0

CC(CCc1ccccn1)(CCc1ccccn1)C(=O)c1ccccc1 (10 µM)
inactive: RET 0 | [1] 0 | RIOK1 = 0 | RIPK1 = 0 | RIPK2 = 0 | ROR2 = 0 | RPS6KA1 = 0 | SPHK1 = 0 | SRC 0 | STK24 = 0

CC(C)Oc1ccc(-c2cnc3c(-c4ccnc5ccccc45)cnn3c2)cc1 (10 µM)
inactive: RET 0 | [1] 0 | RIOK1 = 0 | RIPK1 = 0 | RIPK2 = 0 | ROR2 = 0 | RPS6KA1 = 0 | SPHK1 = 0 | SRC 0 | STK24 = 0

CC1=C(C(=O)Nc2ccc3[nH]ncc3c2)C(c2ccc(F)cc2)NC(=O)N1 (stereo not given) (10 µM)
inactive: RET 0 | [1] 0 | RIOK1 = 0 | RIPK1 = 0 | RIPK2 = 0 | ROR2 = 0 | RPS6KA1 = 0 | SPHK1 = 0 | SRC 0 | STK24 = 0

CC(=O)Nc1nc(C)c(-c2nc(N3CCCC(O)C3)no2)s1 (stereo not given) (10 µM)
inactive: RET 0 | [1] 0 | RIOK1 = 0 | RIPK1 = 0 | RIPK2 = 0 | ROR2 = 0 | RPS6KA1 = 0 | SPHK1 = 0 | SRC 0 | STK24 = 0

COc1nc(-c2ccnc(NC(=O)C3CC3)c2)sc1C(N)=O [GSK-3β inhibitor 2] (10 µM)
inactive: RET 0 | [1] 0 | RIOK1 = 0 | RIPK1 = 0 | RIPK2 = 0 | ROR2 = 0 | RPS6KA1 = 0 | SPHK1 = 0 | SRC 0 | STK24 = 0

O=C1NC(=O)/C(=C/c2ccc(-c3ccc(F)cc3O)o2)S1 (10 µM)
inactive: RET 0 | [1] 0 | RIOK1 = 0 | RIPK1 = 0 | RIPK2 = 0 | ROR2 = 0 | RPS6KA1 = 0 | SPHK1 = 0 | SRC 0 | STK24 = 0

Cc1ccc(-c2ccc3c(ccc4sc5c(c43)NC[C@@H](C)NC5=O)n2)cn1 (10 µM)
inactive: RET 0 | [1] 0 | RIOK1 = 0 | RIPK1 = 0 | RIPK2 = 0 | ROR2 = 0 | RPS6KA1 = 0 | SPHK1 = 0 | SRC 0 | STK24 = 0

CN1CCN(CCCNc2ncc(Cl)c(-c3cc4c(C(=O)NC5CC5)cccc4s3)n2)CC1 (10 µM)
inactive: RET 0 | [1] 0 | RIOK1 = 0 | RIPK1 = 0 | RIPK2 = 0 | ROR2 = 0 | RPS6KA1 = 0 | SPHK1 = 0 | SRC 0 | STK24 = 0

COc1ncc(Nc2ncc([C@@H](C)N3CCN(S(C)(=O)=O)CC3)cc2-c2nc(C)nc(N)n2)cc1F (10 µM)
inactive: RET 0 | [1] 0 | RIOK1 = 0 | RIPK1 = 0 | RIPK2 = 0 | ROR2 = 0 | RPS6KA1 = 0 | SPHK1 = 0 | SRC 0 | STK24 = 0

Nc1ncc(-c2ccc(C(=O)N3CCNCC3)cc2)nc1-c1ccc(C(F)(F)F)cc1 (10 µM)
inactive: RET 0 | [1] 0 | RIOK1 = 0 | RIPK1 = 0 | RIPK2 = 0 | ROR2 = 0 | RPS6KA1 = 0 | SPHK1 = 0 | SRC 0 | STK24 = 0

CNC(=O)c1ccc(-c2cnc3cnc(-c4ccccc4)cn23)cc1 (10 µM)
inactive: RET 0 | [1] 0 | RIOK1 = 0 | RIPK1 = 0 | RIPK2 = 0 | ROR2 = 0 | RPS6KA1 = 0 | SPHK1 = 0 | SRC 0 | STK24 = 0

COC1(C(=O)N[C@@H](C)c2ccc(-n3cc(F)cn3)nc2)CCC(c2nc(C)cc(Nc3cc(C)[nH]n3)n2)CC1 (stereo partly drawn) [trans-Pralsetinib] (2.5 µM)
inactive: RET 0 | [1] 0 | RIOK1 = 0 | RIPK1 = 0 | RIPK2 = 0 | ROR2 = 0 | RPS6KA1 = 0 | SPHK1 = 0 | SRC 0 | STK24 = 0

COC(=O)N[C@@H](C)CNc1nccc(-c2cn(C(C)C)nc2-c2cc(Cl)cc(NS(C)(=O)=O)c2F)n1 [Encorafenib] (10 µM)
inactive: RET 0 | [1] 0 | RIOK1 = 0 | RIPK1 = 0 | RIPK2 = 0 | ROR2 = 0 | RPS6KA1 = 0 | SPHK1 = 0 | SRC 0 | STK24 = 0

O=C(CO)N1CCC(c2n[nH]c(-c3ccc(Cl)cc3)c2-c2ccncn2)CC1 (10 µM)
inactive: RET 0 | [1] 0 | RIOK1 = 0 | RIPK1 = 0 | RIPK2 = 0 | ROR2 = 0 | RPS6KA1 = 0 | SPHK1 = 0 | SRC 0 | STK24 = 0

Cc1cc2cc(Oc3ccnc(Nc4cccc(CS(=O)(=O)NCCN(C)C)c4)n3)ccc2[nH]1 [Sulfatinib] (10 µM)
inactive: RET 0 | [1] 0 | RIOK1 = 0 | RIPK1 = 0 | RIPK2 = 0 | ROR2 = 0 | RPS6KA1 = 0 | SPHK1 = 0 | SRC 0 | STK24 = 0

CCN1C(=O)CNc2ncc(-c3ccc(-c4nc[nH]n4)nc3C)nc21 [CC-115 (hydrochloride)] (2.5 µM)
inactive: RET 0 | [1] 0 | RIOK1 = 0 | RIPK1 = 0 | RIPK2 = 0 | ROR2 = 0 | RPS6KA1 = 0 | SPHK1 = 0 | SRC 0 | STK24 = 0

N=C(N)NC(=N)NCCc1ccccc1 [Phenformin (hydrochloride)] (10 µM)
inactive: RET 0 | [1] 0 | RIOK1 = 0 | RIPK1 = 0 | RIPK2 = 0 | ROR2 = 0 | RPS6KA1 = 0 | SPHK1 = 0 | SRC 0 | STK24 = 0

CN(C)c1ncnc2nc[nH]c12 [6-(Dimethylamino)purine] (10 µM)
inactive: RET 0 | [1] 0 | RIOK1 = 0 | RIPK1 = 0 | RIPK2 = 0 | ROR2 = 0 | RPS6KA1 = 0 | SPHK1 = 0 | SRC 0 | STK24 = 0

COc1cc(-c2cc(-c3cc(OC)c(OC)c(OC)c3)cc(C(F)P(=O)(OCOC(=O)C(C)(C)C)OCOC(=O)C(C)(C)C)c2)cc(OC)c1OC (stereo not given) [Stafia-1-dipivaloyloxymethyl ester] (2.5 µM)
inactive: RET 0 | [1] 0 | RIOK1 = 0 | RIPK1 = 0 | RIPK2 = 0 | ROR2 = 0 | RPS6KA1 = 0 | SPHK1 = 0 | SRC 0 | STK24 = 0

C=C[C@H]1[C@H](O[C@@H]2O[C@H](CO)[C@@H](O)[C@H](O)[C@H]2OC(=O)c2c(O)cc(O)cc2-c2cccc(O)c2)OC=C2C(=O)OCC[C@H]21 [Amarogentin] (10 µM)
inactive: RET 0 | [1] 0 | RIOK1 = 0 | RIPK1 = 0 | RIPK2 = 0 | ROR2 = 0 | RPS6KA1 = 0 | SPHK1 = 0 | SRC 0 | STK24 = 0

Cn1cc(-c2ccc(F)c(C(F)(F)F)c2)nc1C1CCN(c2ncnc3[nH]ncc23)CC1 (10 µM)
inactive: RET 0 | [1] 0 | RIOK1 = 0 | RIPK1 = 0 | RIPK2 = 0 | ROR2 = 0 | RPS6KA1 = 0 | SPHK1 = 0 | SRC 0 | STK24 = 0
